Construct, isoform or probe ends are uncertain for at least one entry. No signal at the amounts used counts as a negative. At least one verdict was read from the data and is not stated in words by the source.
Test system: SmExo (CBASS-associated DEDDh Exo) (Serratia marcescens)
Experiment: EMSA
Settings: 2 uM Exo, with and/or without 2 uM 3',2'-cGAMP

“GCATAAACCTCATAATTAAAAATTTATCTAAGTCACTAACTC [42-nt ssDNA]”: no binding.
